Results reported in the supplement of paper PMC10849652.
This is one part of the list.

The chains behind the UniProt entries cited, without tags or fusion partners. Where a name states a change or a piece, a line headed by the entry shows the natural chain unless it says otherwise.
UniProt O95365: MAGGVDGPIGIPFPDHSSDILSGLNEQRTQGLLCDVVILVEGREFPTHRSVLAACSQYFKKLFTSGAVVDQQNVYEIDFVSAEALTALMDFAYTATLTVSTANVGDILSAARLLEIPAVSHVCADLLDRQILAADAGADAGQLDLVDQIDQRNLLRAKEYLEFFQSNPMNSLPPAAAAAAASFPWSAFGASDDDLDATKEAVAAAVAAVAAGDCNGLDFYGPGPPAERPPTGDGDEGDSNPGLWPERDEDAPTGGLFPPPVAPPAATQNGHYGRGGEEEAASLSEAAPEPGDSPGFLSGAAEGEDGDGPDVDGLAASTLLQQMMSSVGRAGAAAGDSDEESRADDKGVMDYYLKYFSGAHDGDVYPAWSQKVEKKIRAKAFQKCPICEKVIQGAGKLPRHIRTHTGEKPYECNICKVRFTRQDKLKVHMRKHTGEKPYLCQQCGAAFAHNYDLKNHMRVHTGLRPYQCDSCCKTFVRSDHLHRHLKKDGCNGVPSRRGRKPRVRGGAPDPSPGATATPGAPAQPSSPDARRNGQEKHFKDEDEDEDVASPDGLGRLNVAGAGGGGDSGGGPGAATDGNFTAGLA
UniProt P51811: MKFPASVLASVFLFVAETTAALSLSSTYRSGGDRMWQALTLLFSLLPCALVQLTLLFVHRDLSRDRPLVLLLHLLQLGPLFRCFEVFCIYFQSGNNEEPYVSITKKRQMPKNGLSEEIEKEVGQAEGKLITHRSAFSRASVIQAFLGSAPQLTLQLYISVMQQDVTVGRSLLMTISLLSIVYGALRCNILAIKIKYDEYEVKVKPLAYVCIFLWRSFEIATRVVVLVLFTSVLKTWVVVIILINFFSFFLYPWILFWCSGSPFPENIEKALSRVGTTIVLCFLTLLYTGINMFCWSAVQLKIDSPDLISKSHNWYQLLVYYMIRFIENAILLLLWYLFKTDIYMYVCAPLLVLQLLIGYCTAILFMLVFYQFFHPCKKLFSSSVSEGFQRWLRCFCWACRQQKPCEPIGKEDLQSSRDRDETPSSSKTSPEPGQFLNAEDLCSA
UniProt O95070: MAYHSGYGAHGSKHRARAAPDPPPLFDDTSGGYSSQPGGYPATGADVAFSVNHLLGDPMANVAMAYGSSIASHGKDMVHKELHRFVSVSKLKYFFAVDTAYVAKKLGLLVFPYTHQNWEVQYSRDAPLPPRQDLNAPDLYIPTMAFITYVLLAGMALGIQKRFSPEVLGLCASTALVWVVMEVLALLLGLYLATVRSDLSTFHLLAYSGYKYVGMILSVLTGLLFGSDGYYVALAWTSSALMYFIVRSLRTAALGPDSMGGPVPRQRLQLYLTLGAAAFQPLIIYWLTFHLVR
UniProt Q6FIF0: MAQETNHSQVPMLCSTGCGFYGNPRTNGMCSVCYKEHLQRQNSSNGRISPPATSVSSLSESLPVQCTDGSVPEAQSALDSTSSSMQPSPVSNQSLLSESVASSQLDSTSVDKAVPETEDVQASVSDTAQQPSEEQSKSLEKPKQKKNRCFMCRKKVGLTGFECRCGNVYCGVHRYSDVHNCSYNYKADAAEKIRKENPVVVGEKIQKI
UniProt Q7Z2W4: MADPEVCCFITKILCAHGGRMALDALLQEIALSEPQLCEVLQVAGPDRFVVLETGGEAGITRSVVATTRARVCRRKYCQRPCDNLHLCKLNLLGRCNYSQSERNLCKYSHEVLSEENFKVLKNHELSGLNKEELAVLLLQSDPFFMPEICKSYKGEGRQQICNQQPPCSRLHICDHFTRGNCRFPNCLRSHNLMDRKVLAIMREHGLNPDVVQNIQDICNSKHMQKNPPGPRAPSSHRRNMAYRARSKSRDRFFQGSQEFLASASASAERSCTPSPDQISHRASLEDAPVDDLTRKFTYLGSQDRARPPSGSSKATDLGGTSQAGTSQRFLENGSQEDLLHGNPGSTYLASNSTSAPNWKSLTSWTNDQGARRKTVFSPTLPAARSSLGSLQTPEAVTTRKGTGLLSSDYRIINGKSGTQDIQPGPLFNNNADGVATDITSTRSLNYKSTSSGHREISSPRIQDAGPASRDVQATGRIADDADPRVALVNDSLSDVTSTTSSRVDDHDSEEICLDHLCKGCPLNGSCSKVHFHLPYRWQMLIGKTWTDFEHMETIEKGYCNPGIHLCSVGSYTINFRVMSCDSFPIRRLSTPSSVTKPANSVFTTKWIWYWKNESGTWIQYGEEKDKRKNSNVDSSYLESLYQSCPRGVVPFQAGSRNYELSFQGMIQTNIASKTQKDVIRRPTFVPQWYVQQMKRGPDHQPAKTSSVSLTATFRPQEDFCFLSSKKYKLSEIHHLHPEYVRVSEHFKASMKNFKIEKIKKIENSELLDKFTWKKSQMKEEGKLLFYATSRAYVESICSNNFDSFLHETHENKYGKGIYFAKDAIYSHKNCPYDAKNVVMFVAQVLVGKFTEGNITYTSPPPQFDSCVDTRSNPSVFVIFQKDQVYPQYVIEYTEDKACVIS
UniProt Q9ULC8: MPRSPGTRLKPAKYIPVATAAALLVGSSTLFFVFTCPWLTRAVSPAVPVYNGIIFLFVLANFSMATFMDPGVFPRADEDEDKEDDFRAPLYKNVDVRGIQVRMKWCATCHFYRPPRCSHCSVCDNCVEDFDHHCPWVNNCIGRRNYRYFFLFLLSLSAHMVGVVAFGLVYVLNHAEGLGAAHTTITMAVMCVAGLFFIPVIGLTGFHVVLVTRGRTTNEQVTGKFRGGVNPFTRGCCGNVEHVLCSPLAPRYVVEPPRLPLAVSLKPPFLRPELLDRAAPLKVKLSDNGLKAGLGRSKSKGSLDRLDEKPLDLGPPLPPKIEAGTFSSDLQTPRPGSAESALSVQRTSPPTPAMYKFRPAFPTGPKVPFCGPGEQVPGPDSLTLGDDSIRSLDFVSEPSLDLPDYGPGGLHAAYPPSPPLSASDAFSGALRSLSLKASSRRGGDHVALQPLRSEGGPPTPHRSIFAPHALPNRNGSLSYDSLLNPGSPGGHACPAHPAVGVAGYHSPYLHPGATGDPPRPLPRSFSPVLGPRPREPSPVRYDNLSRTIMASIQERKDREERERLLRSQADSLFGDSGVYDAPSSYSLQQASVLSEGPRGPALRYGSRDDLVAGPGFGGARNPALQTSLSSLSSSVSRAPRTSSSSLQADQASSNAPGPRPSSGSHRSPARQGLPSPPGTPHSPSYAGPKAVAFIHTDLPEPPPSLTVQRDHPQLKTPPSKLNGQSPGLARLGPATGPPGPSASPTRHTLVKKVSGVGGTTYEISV
UniProt P67809, whole entry, looked up: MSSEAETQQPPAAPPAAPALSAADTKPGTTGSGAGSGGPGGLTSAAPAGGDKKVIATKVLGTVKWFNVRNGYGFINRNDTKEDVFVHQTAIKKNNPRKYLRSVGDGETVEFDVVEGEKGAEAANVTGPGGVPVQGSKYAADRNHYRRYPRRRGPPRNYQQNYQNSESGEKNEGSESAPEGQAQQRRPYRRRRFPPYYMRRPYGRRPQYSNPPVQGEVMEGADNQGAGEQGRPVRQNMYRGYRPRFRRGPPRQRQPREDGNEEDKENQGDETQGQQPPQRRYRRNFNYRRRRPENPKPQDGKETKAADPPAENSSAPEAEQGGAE
UniProt Q9H6S0: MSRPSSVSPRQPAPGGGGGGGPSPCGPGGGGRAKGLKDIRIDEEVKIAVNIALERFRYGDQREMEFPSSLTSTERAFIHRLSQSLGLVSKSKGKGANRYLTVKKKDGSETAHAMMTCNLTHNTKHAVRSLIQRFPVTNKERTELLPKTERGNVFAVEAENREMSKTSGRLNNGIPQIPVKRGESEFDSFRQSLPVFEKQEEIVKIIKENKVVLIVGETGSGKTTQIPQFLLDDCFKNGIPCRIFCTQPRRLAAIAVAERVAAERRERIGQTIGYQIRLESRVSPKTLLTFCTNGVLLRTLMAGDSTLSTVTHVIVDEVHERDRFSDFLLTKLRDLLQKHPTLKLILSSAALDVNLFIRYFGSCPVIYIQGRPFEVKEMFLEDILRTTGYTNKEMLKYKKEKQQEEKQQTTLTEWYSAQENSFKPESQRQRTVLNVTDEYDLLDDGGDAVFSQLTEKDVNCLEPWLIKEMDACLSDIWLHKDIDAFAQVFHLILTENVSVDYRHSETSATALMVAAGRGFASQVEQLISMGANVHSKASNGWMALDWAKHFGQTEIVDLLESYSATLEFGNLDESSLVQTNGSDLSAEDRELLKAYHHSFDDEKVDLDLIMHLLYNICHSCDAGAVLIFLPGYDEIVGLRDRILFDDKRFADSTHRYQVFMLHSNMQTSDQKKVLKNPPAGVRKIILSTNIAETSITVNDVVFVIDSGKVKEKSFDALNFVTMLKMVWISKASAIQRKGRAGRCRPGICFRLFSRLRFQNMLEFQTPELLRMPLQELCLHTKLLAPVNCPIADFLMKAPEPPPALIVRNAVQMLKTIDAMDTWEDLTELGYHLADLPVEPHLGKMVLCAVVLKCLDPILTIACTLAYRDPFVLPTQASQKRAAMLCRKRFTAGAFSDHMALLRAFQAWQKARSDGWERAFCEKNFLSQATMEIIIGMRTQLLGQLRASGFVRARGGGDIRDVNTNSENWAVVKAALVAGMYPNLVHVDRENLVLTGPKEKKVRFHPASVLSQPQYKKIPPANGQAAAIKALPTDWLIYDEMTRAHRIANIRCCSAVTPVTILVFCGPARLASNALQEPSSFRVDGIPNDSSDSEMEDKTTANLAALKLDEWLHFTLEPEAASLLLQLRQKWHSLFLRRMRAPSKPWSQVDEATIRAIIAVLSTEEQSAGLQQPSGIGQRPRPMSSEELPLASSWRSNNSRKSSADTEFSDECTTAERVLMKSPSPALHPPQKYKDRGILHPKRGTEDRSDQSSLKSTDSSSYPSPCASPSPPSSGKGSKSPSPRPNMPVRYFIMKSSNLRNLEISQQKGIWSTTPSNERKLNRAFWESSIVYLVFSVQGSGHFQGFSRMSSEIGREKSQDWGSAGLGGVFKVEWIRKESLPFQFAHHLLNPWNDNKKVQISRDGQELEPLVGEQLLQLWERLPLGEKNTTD
UniProt Q9Y397: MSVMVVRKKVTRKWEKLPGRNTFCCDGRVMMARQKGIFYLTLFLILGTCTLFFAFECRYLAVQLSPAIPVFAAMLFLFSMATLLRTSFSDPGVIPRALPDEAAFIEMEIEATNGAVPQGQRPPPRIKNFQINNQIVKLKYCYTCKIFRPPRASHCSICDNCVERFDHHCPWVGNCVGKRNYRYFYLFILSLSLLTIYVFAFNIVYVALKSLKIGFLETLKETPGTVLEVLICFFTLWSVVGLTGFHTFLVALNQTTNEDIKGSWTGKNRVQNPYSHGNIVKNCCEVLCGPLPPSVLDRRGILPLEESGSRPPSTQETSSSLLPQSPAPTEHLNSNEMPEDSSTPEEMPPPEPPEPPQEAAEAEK
UniProt Q9HCC9: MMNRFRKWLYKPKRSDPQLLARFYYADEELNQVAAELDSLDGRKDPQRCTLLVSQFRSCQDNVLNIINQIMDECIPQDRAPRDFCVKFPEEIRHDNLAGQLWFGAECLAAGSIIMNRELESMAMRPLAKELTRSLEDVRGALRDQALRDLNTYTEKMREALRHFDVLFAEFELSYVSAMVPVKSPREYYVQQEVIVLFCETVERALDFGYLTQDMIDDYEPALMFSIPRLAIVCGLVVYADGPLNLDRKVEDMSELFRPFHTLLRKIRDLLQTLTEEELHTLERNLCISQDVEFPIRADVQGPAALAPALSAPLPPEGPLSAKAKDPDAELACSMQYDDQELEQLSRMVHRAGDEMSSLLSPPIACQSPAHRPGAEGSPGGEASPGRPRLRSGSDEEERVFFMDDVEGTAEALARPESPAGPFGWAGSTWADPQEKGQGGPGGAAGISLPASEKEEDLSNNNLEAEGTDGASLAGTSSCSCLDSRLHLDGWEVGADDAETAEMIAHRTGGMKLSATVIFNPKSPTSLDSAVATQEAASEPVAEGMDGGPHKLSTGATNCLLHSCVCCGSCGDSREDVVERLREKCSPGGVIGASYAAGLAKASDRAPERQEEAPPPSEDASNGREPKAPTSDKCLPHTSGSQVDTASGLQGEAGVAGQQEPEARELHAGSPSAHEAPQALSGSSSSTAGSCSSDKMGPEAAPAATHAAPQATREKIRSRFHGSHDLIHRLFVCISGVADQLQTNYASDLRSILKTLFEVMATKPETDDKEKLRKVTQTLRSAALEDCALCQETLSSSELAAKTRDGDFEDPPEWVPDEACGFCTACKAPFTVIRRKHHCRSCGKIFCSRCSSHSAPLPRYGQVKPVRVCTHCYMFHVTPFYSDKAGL
UniProt Q9BQ24: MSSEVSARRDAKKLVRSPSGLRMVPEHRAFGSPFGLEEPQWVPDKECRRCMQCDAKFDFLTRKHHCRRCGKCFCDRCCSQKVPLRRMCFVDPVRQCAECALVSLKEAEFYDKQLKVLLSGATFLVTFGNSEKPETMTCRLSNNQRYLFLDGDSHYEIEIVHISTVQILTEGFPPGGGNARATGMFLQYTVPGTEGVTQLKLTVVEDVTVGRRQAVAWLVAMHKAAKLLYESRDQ

Experiments:
Assay in all cases: log2 fold change, soluble protein after heating vs DMSO (PISA); higher = thermal stabilisation; K562 cells, 10 uM, 30 min; active = over 0.2 and 3.5 SD of the protein, either way, in both replicates (recomputed)
bafetinib = compound: Cc1ccc(NC(=O)c2ccc(CN3CC[C@H](N(C)C)C3)c(C(F)(F)F)c2)cc1Nc1nccc(-c2cncnc2)n1 [bafetinib]
In short: (§1)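 Aliquots of K562 cells (2×10^6 cells/mL) treated with 10 μM compound for 30 min were heated for 3 min over 48°C-58°C. After pooling and extraction in PBS with 0.5% NP-40 at 4°C, soluble protein from a 21,000xg, 90 min spin was quantified by TMTpro 16plex LC-MS/MS with channel sums equalised. Thermal stability is expressed against control samples, from duplicates, as a log2 fold change.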

nilotinib = compound: Cc1cn(-c2cc(NC(=O)c3ccc(C)c(Nc4nccc(-c5cccnc5)n4)c3)cc(C(F)(F)F)c2)cn1 [nilotinib]
In short: as §1

[1] = compound: Cc1nc(Nc2n[nH]c3c2CN(C(=O)N[C@H](CN(C)C)c2ccccc2)C3(C)C)c2sccc2n1
In short: as §1

dasatinib = compound: Cc1nc(Nc2ncc(C(=O)Nc3c(C)cccc3Cl)s2)cc(N2CCN(CCO)CC2)n1 [dasatinib]
In short: as §1

[2] = compound: Cc1ncc(-c2ccnc(Nc3ccc(S(C)(=O)=O)cc3)n2)n1C(C)C
In short: as §1

tipifarnib = compound: Cn1cncc1[C@@](N)(c1ccc(Cl)cc1)c1ccc2c(c1)c(-c1cccc(Cl)c1)cc(=O)n2C [tipifarnib]
In short: as §1

[3] = compound: Cc1cccc(CC(=O)N2CCc3c2ccc(-c2cn(C)c4ncnc(N)c24)c3F)n1
In short: as §1

[4] = compound: Cn1cc(-c2ccc3c(c2)CCN3C(=O)Cc2cccc(C(F)(F)F)c2)c2c(N)ncnc21
In short: as §1

[5] = compound: Cn1cc(-c2ccc3nnc(C(F)(F)c4ccc5ncccc5c4)n3n2)cn1
In short: as §1

mubritinib = compound: FC(F)(F)c1ccc(/C=C/c2nc(COc3ccc(CCCCn4ccnn4)cc3)co2)cc1 [mubritinib]
In short: as §1

Measured: log2 fold change

ZNF106 (UniProt Q9H2Y7)
inactive: bafetinib -0.014 | nilotinib 0.01 | [1] 0.015 | dasatinib -0.092 | [2] -0.105 | tipifarnib -0.061

XRN1 (UniProt Q8IZH2)
inactive: bafetinib 0.044 | [3] 0.034 | nilotinib -0.291 | [1] -0.331 | dasatinib 0.017 | [2] 0.083 | [4] -0.058 | [5] -0.119 | mubritinib -0.037

YLPM1 (UniProt P49750)
inactive: bafetinib 0.083 | [3] -0.05 | nilotinib -0.044 | [1] -0.075 | dasatinib -0.062 | [2] -0.011 | [4] 0.077 | [5] 0.031 | tipifarnib -0.048 | mubritinib -0.038

ZEB1 isoform 2 (UniProt P37275)
inactive: bafetinib 0.122 | [3] -0.065 | nilotinib 0.279 | [1] -0.096 | dasatinib 0.008 | [2] -0.025 | [4] 0.076 | tipifarnib 0.04 | mubritinib 0.073

ZBTB7A (UniProt O95365)
inactive: bafetinib 0.013 | nilotinib 0.085 | [1] 0.006 | dasatinib 0.183 | [2] -0.082 | [4] -0.23 | [5] -0.064 | tipifarnib 0.048

XK (UniProt P51811)
inactive: bafetinib -0.139 | [3] -0.167 | nilotinib -0.177 | [1] 0.005 | dasatinib 0.028 | [2] 0.028 | [4] 0.133 | tipifarnib 0.057 | mubritinib -0.042

YIF1A (UniProt O95070)
inactive: bafetinib 0.006 | [3] 0.037 | nilotinib -0.141 | [1] 0.044 | dasatinib 0.025 | [2] -0.064 | [4] 0.043 | [5] 0.102 | tipifarnib 0.103 | mubritinib 0.002

ZCCHC9 (UniProt Q8N567)
inactive: bafetinib 0.144 | [3] -0.048 | nilotinib -0.046 | [1] 0.159 | [2] 0.005 | [4] -0.074 | [5] -0.081 | tipifarnib 0.113 | mubritinib -0.087

ZFPL1 (UniProt O95159)
inactive: bafetinib -0.022 | [3] -0.041 | nilotinib -0.047 | [1] -0.034 | dasatinib 0.04 | [2] -0.01 | [4] 0.049 | [5] -0.03 | tipifarnib 0.008 | mubritinib -0.007

YBX3 isoform 2 (UniProt P16989)
inactive: bafetinib 0.033 | nilotinib 0.072 | [1] 0.042 | dasatinib 0.354 | [2] -0.003 | [4] -0.099 | [5] 0.148 | tipifarnib 0.071 | mubritinib -0.004

ZEB2 (UniProt O60315)
inactive: bafetinib -0.017 | nilotinib 0.025 | [1] -0.149 | dasatinib -0.226 | [2] -0.05 | [5] -0.135 | tipifarnib 0.045 | mubritinib -0.114

YAE1 (UniProt Q9NRH1)
inactive: bafetinib 0.013 | [3] 0.008 | nilotinib -0.023 | [1] 0.104 | dasatinib 0.152 | [2] 0.042 | [4] -0.095 | [5] 0.043 | tipifarnib -0.008 | mubritinib -0.062

XP32 (UniProt Q5T750)
inactive: bafetinib -0.132 | [3] 0.051 | nilotinib 0.783 | [1] -0.105 | dasatinib -0.741 | [2] 0.622 | [4] 0.373 | [5] 0.409 | mubritinib -0.829

YJU2 (UniProt Q9BW85)
inactive: bafetinib -0.077 | [3] -0.037 | nilotinib 0.024 | [1] -0.012 | dasatinib -0.006 | [2] 0.061 | [4] -0.012 | [5] 0.04 | tipifarnib -0.002 | mubritinib -0.027

ZFYVE9 (UniProt O95405)
inactive: bafetinib -0.095 | nilotinib 0.003 | [1] -0.037 | dasatinib -0.192 | [2] 0.144 | [4] 0.136 | [5] 0.054 | tipifarnib 0.089 | mubritinib 0.215

ZFAND6 (UniProt Q6FIF0)
inactive: bafetinib -0.013 | [3] -0.014 | nilotinib 0.014 | [1] 0.028 | dasatinib 0.03 | [2] -0.031 | [4] 0.067 | [5] -0.009 | tipifarnib -0.09 | mubritinib 0.017

ZC3H11A (UniProt O75152)
inactive: bafetinib -0.128 | [3] 0.007 | nilotinib 0.089 | [1] 0.013 | dasatinib -0.242 | [2] -0.194 | [4] -0.166 | tipifarnib 0.141 | mubritinib -0.048

ZC3HAV1 (UniProt Q7Z2W4)
inactive: bafetinib 0.069 | [3] 0.024 | nilotinib 0.074 | [1] -0.257 | dasatinib 0.023 | [2] 0.012 | [4] -0.09 | [5] -0.293 | tipifarnib 0.122 | mubritinib -0.13

ZBED1 (UniProt O96006)
inactive: bafetinib -0.079 | nilotinib 0.082 | [1] -0.256 | dasatinib -0.189 | [2] 0.017 | [4] 0.185 | tipifarnib -0.095

ZBTB3 (UniProt Q9H5J0)
inactive: bafetinib -0.062 | [3] 0.063 | nilotinib 0.084 | [1] -0.027 | [2] 0.036 | [4] 0.071 | [5] 0.014 | tipifarnib -0.111 | mubritinib 0.003

ZDHHC8 isoform 3 (UniProt Q9ULC8)
inactive: bafetinib -0.03 | nilotinib 0.086 | [1] 0.013 | dasatinib -0.112 | [2] -0.014

9 neighbouring records from above, for reference:
XP32 (UniProt Q5T750)
inactive: bafetinib -0.132 | [3] 0.051 | nilotinib 0.783 | [1] -0.105 | dasatinib -0.741 | [2] 0.622 | [4] 0.373 | [5] 0.409 | mubritinib -0.829

YJU2 (UniProt Q9BW85)
inactive: bafetinib -0.077 | [3] -0.037 | nilotinib 0.024 | [1] -0.012 | dasatinib -0.006 | [2] 0.061 | [4] -0.012 | [5] 0.04 | tipifarnib -0.002 | mubritinib -0.027

ZFYVE9 (UniProt O95405)
inactive: bafetinib -0.095 | nilotinib 0.003 | [1] -0.037 | dasatinib -0.192 | [2] 0.144 | [4] 0.136 | [5] 0.054 | tipifarnib 0.089 | mubritinib 0.215

ZFAND6 (UniProt Q6FIF0)
inactive: bafetinib -0.013 | [3] -0.014 | nilotinib 0.014 | [1] 0.028 | dasatinib 0.03 | [2] -0.031 | [4] 0.067 | [5] -0.009 | tipifarnib -0.09 | mubritinib 0.017

ZC3H11A (UniProt O75152)
inactive: bafetinib -0.128 | [3] 0.007 | nilotinib 0.089 | [1] 0.013 | dasatinib -0.242 | [2] -0.194 | [4] -0.166 | tipifarnib 0.141 | mubritinib -0.048

ZC3HAV1 (UniProt Q7Z2W4)
inactive: bafetinib 0.069 | [3] 0.024 | nilotinib 0.074 | [1] -0.257 | dasatinib 0.023 | [2] 0.012 | [4] -0.09 | [5] -0.293 | tipifarnib 0.122 | mubritinib -0.13

ZBED1 (UniProt O96006)
inactive: bafetinib -0.079 | nilotinib 0.082 | [1] -0.256 | dasatinib -0.189 | [2] 0.017 | [4] 0.185 | tipifarnib -0.095

ZBTB3 (UniProt Q9H5J0)
inactive: bafetinib -0.062 | [3] 0.063 | nilotinib 0.084 | [1] -0.027 | [2] 0.036 | [4] 0.071 | [5] 0.014 | tipifarnib -0.111 | mubritinib 0.003

ZDHHC8 isoform 3 (UniProt Q9ULC8)
inactive: bafetinib -0.03 | nilotinib 0.086 | [1] 0.013 | dasatinib -0.112 | [2] -0.014

The listing continues:

ZFYVE16 (UniProt Q7Z3T8)
inactive: bafetinib -0.048 | [3] 0.001 | nilotinib 0.002 | [1] 0 | dasatinib -0.018 | [2] -0.045 | [4] 0.026 | [5] 0.004 | tipifarnib -0.013 | mubritinib 0.008

YBX1 (UniProt P67809)
inactive: bafetinib 0.146 | [3] -0.024 | nilotinib 0.033 | [1] 0.149 | dasatinib 0.167 | [2] 0.013 | [4] -0.199 | [5] -0.136 | tipifarnib 0.242 | mubritinib -0.031

ZFPM1 (UniProt Q8IX07)
inactive: bafetinib 0.252 | nilotinib 0.022 | [1] 0.082 | dasatinib -0.131 | [2] -0.175 | [4] 0.235 | [5] 0.099 | tipifarnib 0.193

XPO7 (UniProt E7ESC6)
inactive: bafetinib -0.104 | [3] 0.032 | nilotinib -0.027 | [1] -0.022 | dasatinib -0.036 | [2] -0.004 | [4] 0.038 | [5] 0.002 | tipifarnib -0.03 | mubritinib 0.042

ZDHHC14 (UniProt Q8IZN3)
inactive: bafetinib -0.119 | nilotinib -0.034 | [1] -0.03 | dasatinib 0.074 | [2] -0.025 | [4] 0.114 | [5] -0.063 | tipifarnib 0.046 | mubritinib -0.045

YTHDC2 (UniProt Q9H6S0)
inactive: [3] -0.014 | mubritinib 0.004

ZFHX4 isoform 5 (UniProt Q86UP3)
inactive: nilotinib 0.171 | [1] -0.028 | [2] -0.018

ZFAND1 (UniProt Q8TCF1)
inactive: bafetinib -0.03 | nilotinib 0 | [1] -0.046 | [2] 0.059 | [5] -0.202 | tipifarnib -0.2 | mubritinib 0.009

ZDHHC9 (UniProt Q9Y397)
inactive: [3] 0.056 | [5] -0.08

ZFYVE28 (UniProt Q9HCC9)
inactive: bafetinib 0.159 | tipifarnib -0.096

ZFYVE21 isoform 2 (UniProt Q9BQ24)
inactive: [3] -0.022 | dasatinib -0.32 | [5] -0.195
